Test results from PMC7109583.
Results are given in words; binding and its absence hold for the method and conditions named. Some entries that bind do so weakly or less than the wild type.

Target: T1, CD81 (human), overexpressed on Jurkat CD4+ T cells from pcDNA3.1-CD81 (human) (UniProt P60033)
T1 sequence: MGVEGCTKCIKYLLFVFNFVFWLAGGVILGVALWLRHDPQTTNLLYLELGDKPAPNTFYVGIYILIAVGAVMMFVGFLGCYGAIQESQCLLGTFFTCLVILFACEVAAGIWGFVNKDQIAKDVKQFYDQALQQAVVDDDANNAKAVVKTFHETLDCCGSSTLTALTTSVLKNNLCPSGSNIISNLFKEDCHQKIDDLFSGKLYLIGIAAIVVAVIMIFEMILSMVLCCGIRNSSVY
Test: flow cytometry on cells; 7P-FITC incubated with CD4+ T cells (Jurkat cells) transfected with pcDNA3.1-CD81 or the pcDNA3.1 vector; bound 7P-FITC read by flow cytometry; only the binder purified

B1: 7P conjugated with FITC (7-amino acid HVR1 mimic peptide 7P, GQTYTSG) (peptide)
peptide: GQTYTSG
modifications: conjugated with FITC (position not given)
Question: With B1 as the binder, how does the binding read?
Answer: The binding was “binds”.
